{"source": "patent US20250049930A1", "about": "(CEDARS-SINAI MEDICAL CENTER, priority 2022, published 2025)", "assay": "peptide made by a vendor (peptide synthesis; Fmoc-Met-Wang resin; HCTU/DIEA)", "settings": "conjugation step"}
{"substance": "Pomalidomide-PEG4-RDFQSFRKMWPFFAM", "values": [{"measurement": "final purity (method not given)", "value": "≥98", "unit": "%"}]}
